{"source": "patent US20020045603A1", "about": "“Method of inhibiting membrane-type matrix metalloproteinase” (The Research Foundation of State University of New York, priority 1998, published 2002)", "origin": "cited, not measured here", "system": "melanoma cell", "settings": "in vitro; Zucker et al. (1985); cited from earlier work", "note": "For at least one compound, name, drawing or mass did not settle the structure.", "data": [{"smiles": "CN(C)c1ccc(O)c2c1C[C@H]1C[C@H]3[C@H](N(C)C)C(O)=C(C(N)=O)C(=O)[C@@]3(O)C(O)=C1C2=O", "note": "[minocycline, 7-dimethylamino-tetracycline]", "values": [{"measurement": "melanoma cell activity", "result": "inhibit"}]}]}
